PubChem BioAssay AID504791 | Drosophila RNAi Screening Center – 2011
The deposit covers about 23,000 reagents; below is an unselected part of those that have a named target and a result. Over the whole deposit, 199 (0.86%) were called active. 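Plate-scaled ratios behind the calls are not deposited; printed light signals are raw; many rows marked increased or decreased are still called inactive.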 The numbers tell different reagents against one gene apart. Names joined by + are all predicted targets of the reagent.

Test: 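Genes whose knock-down strengthens or weakens small-RNA reporter silencing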 (primary screen)
Cell system: Drosophila S2-derived reporter cells
Knock-down reagent: long dsRNA against Drosophila genes, about 150-250 ng dsRNA per well (siRNA assay); about 80-120 ng (miRNA assay)
Duration: about 5 days (siRNA assay); about 4 days (miRNA assay)
Treatment: copper sulfate induction of reporters: 25 µM (siRNA assay); 200 mM stated (miRNA assay), 1-2 days before reading
Measurement: 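Per-well ratio of Renilla over firefly light, expressed relative to that plate's average ratio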
Direction: siRNA reporter hit score: higher = 3 marks a strong hit with raised ratio; -3 a strong hit with lowered ratio
Call rule: 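a well was a first-pass pick when its plate-scaled ratio rose above 1.5 (siRNA assay) or 1.6 (miRNA assay), or dropped below 0.6; a gene counted only if two separate dsRNAs agreed on retest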

Target gene,reagent no.,siRNA reporter hit score,stable siRNA reporter change,miRNA reporter change,"stable assay Renilla, run 1 (luminescence)","stable assay firefly, run 1 (luminescence)",outcome
Karl,1,,,,8711,5.41e5,inactive
CG30389,1,,,,1.09e5,3.26e5,inactive
CG30389,2,,,,6975,4.64e5,inactive
atl (atlastin),1,,,,7698,2.69e5,inactive
CG12486 (retired record),1,,,,8158,3.15e5,inactive
Or47a (Odorant receptor 47a),1,,,,6255,3.53e5,inactive
CG14109,1,,,,6755,3.47e5,inactive
qm (quemao),1,,,,6435,5.26e5,inactive
Mid1,1,,,,4371,2.66e5,inactive
Mid1,2,,,,6043,4.46e5,inactive
Mid1,3,,,,6260,3.05e5,inactive
Mid1,4,,,,4480,3.82e5,inactive
Mid1,5,,,,4180,2.96e5,inactive
COX7C (Cytochrome c oxidase subunit 7C),1,,,,4147,4.88e5,inactive
Adck5 (aarF domain containing kinase 5),1,,,,5782,3.31e5,inactive
CG34276,1,,,,8375,4.42e5,inactive
Cyp6a16Psi (retired record),1,,,,7386,3.33e5,inactive
CG34316,1,,,,4504,3.68e5,inactive
CG12010,1,,,,6138,3.38e5,inactive
MED7 (Mediator complex subunit 7),1,,,,4407,2.74e5,inactive
wry (weary),1,,,,7318,5.48e5,inactive
wry (weary),2,,,,7462,5.49e5,inactive
wry (weary),3,,,,4739,4.71e5,inactive
MFS10 (Major Facilitator Superfamily Transporter 10),1,,,,7839,4.53e5,inactive
ppk22 (pickpocket 22),1,,,,10149,5.86e5,inactive
"SdhB (Succinate dehydrogenase, subunit B (iron-sulfur))",1,,,,9478,1.89e6,inactive
"SdhB (Succinate dehydrogenase, subunit B (iron-sulfur))",2,,,,8841,6.09e5,inactive
CG14817,1,,,,5975,4.00e5,inactive
Phae1 (Phaedra 1),1,,,,6758,4.79e5,inactive
snoRNA:Me28S-A982b + Uhg4 + snoRNA:Me28S-G3255a + 1 more,1,,,,5600,4.68e5,inactive
CG31913,1,,,,4243,3.03e5,inactive
w-cup (world cup),1,,,,6094,3.65e5,inactive
CG14330,1,,,,6852,4.29e5,inactive
CG13502,1,,,,6366,3.51e5,inactive

The list goes on (7 carried over from the part before).
Target gene,reagent no.,siRNA reporter hit score,stable siRNA reporter change,miRNA reporter change,"stable assay Renilla, run 1 (luminescence)","stable assay firefly, run 1 (luminescence)",outcome
CG14817,1,,,,5975,4.00e5,inactive
Phae1 (Phaedra 1),1,,,,6758,4.79e5,inactive
snoRNA:Me28S-A982b + Uhg4 + snoRNA:Me28S-G3255a + 1 more,1,,,,5600,4.68e5,inactive
CG31913,1,,,,4243,3.03e5,inactive
w-cup (world cup),1,,,,6094,3.65e5,inactive
CG14330,1,,,,6852,4.29e5,inactive
CG13502,1,,,,6366,3.51e5,inactive
CG3704,1,,,,6063,3.60e5,inactive
CG3704,2,,,,5619,3.12e5,inactive
CG2017,1,,,,8520,3.82e5,inactive
CG12219,1,,,,5546,3.05e5,inactive
mil (milkah),1,,,,7259,4.43e5,inactive
Obp56h (Odorant-binding protein 56h),1,,,,6199,3.41e5,inactive
RpL37-2 (Ribosomal protein L37-2),1,,,,6599,3.56e5,inactive
Ilp2 (Insulin-like peptide 2),1,,,,8515,4.31e5,inactive
Tsp66E (Tetraspanin 66E),1,,,,6568,4.07e5,inactive
Cdk5 (Cyclin-dependent kinase 5),1,,,,11832,4.47e5,inactive
mod(mdg4) + pre-mod(mdg4)-Z + pre-mod(mdg4)-T,1,,,,4708,3.14e5,inactive
mod(mdg4) + pre-mod(mdg4)-Z + pre-mod(mdg4)-T,2,,,,7483,4.38e5,inactive
CG14346,1,,,,7000,3.37e5,inactive
CG30429,1,,,,5386,4.35e5,inactive
Efhc1.1 (EF-hand domain containing 1.1),1,,,,5382,3.77e5,inactive
CG5402,1,,,,6194,6.07e5,inactive
CG1161,1,3,,,5542,3.03e5,inactive
CG32643,1,,,,4788,3.98e5,inactive
CG33178,1,,,,4548,3.82e5,inactive
GluProRS (Glutamyl-prolyl-tRNA synthetase),1,,reporter ratio lowered past the hit cutoff,,8758,5.69e5,inactive
Trmt6 (tRNA methyltransferase 6 non-catalytic subunit),1,,,,8587,5.19e5,inactive
AGO3 (Argonaute 3),1,,,,8743,4.18e5,inactive
CG1637,1,,,,5882,4.59e5,inactive
CG1637,2,,,,8086,6.55e5,inactive
CG1637,3,,,,5508,3.48e5,inactive
CG17163,1,,,,6280,5.08e5,inactive
CG5126,1,,,,1.38e5,1.22e5,inactive
CG31141,1,,,,5476,3.53e5,inactive
Tdrd3 (Tudor domain containing 3),1,,,,8459,3.52e5,inactive
Ugt305A1 (UDP-glycosyltransferase family 305 member A1),1,,,,6004,2.98e5,inactive
Pos (Poseidon),1,,,,6398,4.22e5,inactive
CG5071,1,,,,5947,3.29e5,inactive
CG5071,2,,,,4851,3.77e5,inactive
Tob (Transducer of ERBB2),1,,,,8235,4.37e5,inactive
ND-B14.5AL (NADH dehydrogenase (ubiquinone) B14.5 A subunit-like),1,,,,8199,4.44e5,inactive
CG11710,1,,,,5823,3.73e5,inactive
Grip75,1,,,,6864,3.20e5,inactive
CG42597,1,,,,4111,3.43e5,inactive
CG13305,1,,,reporter ratio lowered past the hit cutoff,5296,3.39e5,inactive
CG2926,1,,,,8770,4.27e5,inactive
VhaAC45 (Vacuolar H[+] ATPase AC45 accessory subunit),1,,,,8454,6.27e5,inactive
Mes2 (Mesoderm-expressed 2),1,,,,5258,4.28e5,inactive
Mes2 (Mesoderm-expressed 2),2,,,,4692,4.83e5,inactive
kek1 (kekkon 1),1,,,,7810,3.92e5,inactive
Uros1 (Uroporphyrinogen III synthase 1),1,,,,8517,4.31e5,inactive
mip40 (Myb-interacting protein 40),1,,,,8283,3.92e5,inactive
CG5112,1,,reporter ratio raised past the hit cutoff,,17123,5.49e5,inactive
Srrm234 (Serine-arginine repetitive matrix 2/3/4),1,,,,6906,4.82e5,inactive
Srrm234 (Serine-arginine repetitive matrix 2/3/4),2,,,,8038,3.24e5,inactive
